Reference: publication PMC7862700
The list shows a part of the results, in another mix than the full data. For some assays here: At the low end of the ranking the order means little. The list shows a part of the results. For some assays here: The exact form of the protein is not confirmed.

Target: T1, GABPA (UniProt Q06546)
T1 sequence: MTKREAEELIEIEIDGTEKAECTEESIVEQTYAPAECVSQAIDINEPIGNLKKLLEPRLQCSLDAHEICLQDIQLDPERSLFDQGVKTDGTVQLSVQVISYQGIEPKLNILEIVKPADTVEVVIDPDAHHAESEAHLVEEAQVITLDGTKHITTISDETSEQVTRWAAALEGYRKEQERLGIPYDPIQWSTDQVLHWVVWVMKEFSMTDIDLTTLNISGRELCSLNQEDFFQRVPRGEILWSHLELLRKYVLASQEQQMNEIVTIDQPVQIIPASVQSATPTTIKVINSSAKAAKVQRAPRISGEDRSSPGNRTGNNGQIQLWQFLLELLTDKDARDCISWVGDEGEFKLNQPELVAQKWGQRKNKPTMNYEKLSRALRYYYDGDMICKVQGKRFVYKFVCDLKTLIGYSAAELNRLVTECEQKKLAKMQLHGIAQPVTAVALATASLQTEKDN
Assay: DAPPL (digital affinity profiling via proximity ligation, sequencing)
Conditions: 10 mM Tris-HCl pH 7.5, 50 mM NaCl, 1 mM DTT, 4% glycerol, room temperature, 30 min; GST-TFs on glutathione beads, 16-mer random dsDNA library, 0.1% …; high values mean tight binding; double strand, one strand shown; scale: fold enrichment (6-mer frequency, TF over GST control)

**Q.** With GTGCAT as the sequence, how does the binding signal read?
**A.** The binding signal was 1.1.

**Q.** CTGATG was tested. Which binding signal did it give?
**A.** Its binding signal is 1.7.

**Q.** GCAACT was tested. Which binding signal did it give?
**A.** The binding signal was 1.19.

**Q.** With ACACCG as the sequence, how does the binding signal read?
**A.** The binding signal was 0.996.

**Q.** TGTAAG was tested. Which binding signal did it give?
**A.** The binding signal was 1.03.

**Q.** For GCATTT, which binding signal is on record?
**A.** Its binding signal is 1.36.

**Q.** How did the binding signal turn out when CCTAGG was run?
**A.** Its binding signal is 1.04.

**Q.** Which binding signal does the source give for TTATTA here?
**A.** The binding signal was 1.04.

**Q.** With CGATAG as the sequence, how does the binding signal read?
**A.** The binding signal was 1.18.

**Q.** For CTGCAG, which binding signal is on record?
**A.** Its binding signal is 1.16.

**Q.** Which binding signal does the source give for TGTTAG here?
**A.** The binding signal was 0.982.

**Q.** For TTATAT, which binding signal is on record?
**A.** Its binding signal is 1.39.

**Q.** For GTACAC, which binding signal is on record?
**A.** Its binding signal is 1.18.

**Q.** Which binding signal does the source give for TCATCA here?
**A.** Its binding signal is 1.17.

**Q.** How did the binding signal turn out when ATAACA was run?
**A.** Its binding signal is 1.22.

**Q.** How did the binding signal turn out when ACTATT was run?
**A.** Its binding signal is 1.33.

**Q.** With TTCGGT as the sequence, how does the binding signal read?
**A.** Its binding signal is 1.13.

**Q.** Which binding signal does the source give for GCCGGA here?
**A.** The binding signal was 0.971.

**Q.** AAACTT was tested. Which binding signal did it give?
**A.** Its binding signal is 1.31.

**Q.** For ATAATG, which binding signal is on record?
**A.** Its binding signal is 1.06.

**Q.** For CCCATA, which binding signal is on record?
**A.** The binding signal was 1.33.

**Q.** With TCATAT as the sequence, how does the binding signal read?
**A.** The binding signal was 1.26.

**Q.** For AAGAAG, which binding signal is on record?
**A.** Its binding signal is 1.01.

**Q.** CCTCTG was tested. Which binding signal did it give?
**A.** The binding signal was 1.63.

**Q.** For TGTCTT, which binding signal is on record?
**A.** The binding signal was 1.38.

**Q.** With TGCACC as the sequence, how does the binding signal read?
**A.** The binding signal was 1.25.

**Q.** With CTTCGA as the sequence, how does the binding signal read?
**A.** The binding signal was 1.25.

**Q.** How did the binding signal turn out when CAAACA was run?
**A.** Its binding signal is 1.18.

**Q.** Which binding signal does the source give for CCGAAA here?
**A.** The binding signal was 1.33.

**Q.** For ATTGTC, which binding signal is on record?
**A.** Its binding signal is 1.16.

**Q.** TCTATG was tested. Which binding signal did it give?
**A.** Its binding signal is 1.21.

**Q.** With CATGTA as the sequence, how does the binding signal read?
**A.** The binding signal was 0.978.

**Q.** How did the binding signal turn out when CTCCCT was run?
**A.** The binding signal was 1.54.

**Q.** Which binding signal does the source give for CCAATA here?
**A.** Its binding signal is 1.25.

**Q.** How did the binding signal turn out when ACAACT was run?
**A.** The binding signal was 1.4.

**Q.** For TTGGGC, which binding signal is on record?
**A.** Its binding signal is 1.01.

**Q.** How did the binding signal turn out when AAAGCA was run?
**A.** The binding signal was 1.15.

**Q.** With GGATAC as the sequence, how does the binding signal read?
**A.** Its binding signal is 0.974.

**Q.** GCTAAA was tested. Which binding signal did it give?
**A.** The binding signal was 1.07.

**Q.** How did the binding signal turn out when GTGCTA was run?
**A.** The binding signal was 1.04.

Target: T2, ETS1 (UniProt P14921)
T2 sequence: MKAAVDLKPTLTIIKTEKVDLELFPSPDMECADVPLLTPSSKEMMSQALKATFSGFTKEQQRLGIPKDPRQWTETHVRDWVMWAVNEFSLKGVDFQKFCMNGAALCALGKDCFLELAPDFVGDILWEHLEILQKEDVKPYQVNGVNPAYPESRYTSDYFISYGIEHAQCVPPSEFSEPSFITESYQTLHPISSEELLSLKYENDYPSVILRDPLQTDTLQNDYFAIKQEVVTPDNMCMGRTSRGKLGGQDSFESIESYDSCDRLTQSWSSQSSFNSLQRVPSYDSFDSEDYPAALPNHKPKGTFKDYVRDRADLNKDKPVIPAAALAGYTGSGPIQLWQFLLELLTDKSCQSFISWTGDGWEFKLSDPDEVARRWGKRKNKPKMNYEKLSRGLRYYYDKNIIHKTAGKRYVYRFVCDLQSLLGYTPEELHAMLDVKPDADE
Assay: as above
Conditions: 10 mM Tris-HCl pH 7.5, 50 mM NaCl, 1 mM DTT, 4% glycerol, room temperature, 30 min; GST-TFs on glutathione beads, 16-mer random dsDNA library, 0.1% …; high values mean tight binding; double strand, one strand shown; scale: fold enrichment (6-mer frequency, TF over GST control)

**Q.** How did the binding signal turn out when GTGCAT was run?
**A.** Its binding signal is 1.04.

**Q.** Which binding signal does the source give for CTGATG here?
**A.** The binding signal was 1.69.

**Q.** Which binding signal does the source give for GCAACT here?
**A.** The binding signal was 1.27.

**Q.** With ACACCG as the sequence, how does the binding signal read?
**A.** Its binding signal is 0.969.

**Q.** With TGTAAG as the sequence, how does the binding signal read?
**A.** Its binding signal is 1.04.

**Q.** GCATTT was tested. Which binding signal did it give?
**A.** The binding signal was 1.3.

**Q.** How did the binding signal turn out when CCTAGG was run?
**A.** The binding signal was 0.959.

**Q.** How did the binding signal turn out when TTATTA was run?
**A.** The binding signal was 1.26.

**Q.** For CGATAG, which binding signal is on record?
**A.** Its binding signal is 1.14.

**Q.** Which binding signal does the source give for CTGCAG here?
**A.** Its binding signal is 1.03.

**Q.** Which binding signal does the source give for TGTTAG here?
**A.** Its binding signal is 0.903.

**Q.** Which binding signal does the source give for TTATAT here?
**A.** Its binding signal is 1.33.

**Q.** Which binding signal does the source give for GTACAC here?
**A.** Its binding signal is 1.21.

**Q.** For TCATCA, which binding signal is on record?
**A.** The binding signal was 1.13.

**Q.** Which binding signal does the source give for ATAACA here?
**A.** Its binding signal is 1.33.

**Q.** Which binding signal does the source give for ACTATT here?
**A.** Its binding signal is 1.29.

**Q.** Which binding signal does the source give for TTCGGT here?
**A.** Its binding signal is 1.12.

**Q.** With GCCGGA as the sequence, how does the binding signal read?
**A.** Its binding signal is 0.951.

**Q.** With AAACTT as the sequence, how does the binding signal read?
**A.** The binding signal was 1.31.

**Q.** How did the binding signal turn out when ATAATG was run?
**A.** The binding signal was 1.15.

**Q.** How did the binding signal turn out when CCCATA was run?
**A.** The binding signal was 1.3.

**Q.** For TCATAT, which binding signal is on record?
**A.** Its binding signal is 1.23.

**Q.** AAGAAG was tested. Which binding signal did it give?
**A.** The binding signal was 1.08.

**Q.** For CCTCTG, which binding signal is on record?
**A.** Its binding signal is 1.47.

**Q.** TGTCTT was tested. Which binding signal did it give?
**A.** The binding signal was 1.32.

**Q.** With TGCACC as the sequence, how does the binding signal read?
**A.** The binding signal was 1.17.

**Q.** How did the binding signal turn out when CTTCGA was run?
**A.** The binding signal was 1.36.

**Q.** With CAAACA as the sequence, how does the binding signal read?
**A.** Its binding signal is 1.18.

**Q.** CCGAAA was tested. Which binding signal did it give?
**A.** Its binding signal is 1.28.

**Q.** For ATTGTC, which binding signal is on record?
**A.** Its binding signal is 1.14.

**Q.** Which binding signal does the source give for TCTATG here?
**A.** The binding signal was 1.14.

**Q.** With CATGTA as the sequence, how does the binding signal read?
**A.** Its binding signal is 1.2.

**Q.** CTCCCT was tested. Which binding signal did it give?
**A.** The binding signal was 1.72.

**Q.** CCAATA was tested. Which binding signal did it give?
**A.** Its binding signal is 1.23.

**Q.** With ACAACT as the sequence, how does the binding signal read?
**A.** The binding signal was 1.36.

**Q.** With TTGGGC as the sequence, how does the binding signal read?
**A.** The binding signal was 1.05.

**Q.** AAAGCA was tested. Which binding signal did it give?
**A.** Its binding signal is 1.06.

**Q.** How did the binding signal turn out when GGATAC was run?
**A.** The binding signal was 0.885.

**Q.** For GCTAAA, which binding signal is on record?
**A.** The binding signal was 1.12.

**Q.** With GTGCTA as the sequence, how does the binding signal read?
**A.** Its binding signal is 1.04.
